In experiment [1] the target is YWHAZ (human (endogenous in MGC80-3)) (UniProt P63104). The experiment in a line: co-IP; MGC80-3 cells transfected with scramble or siG3BP1; IP with anti-YWHAZ antibody, anti-rabbit IgG as control; blot for Bax.
Experiment [2] shares this target. The experiment can be described thus: co-IP; endogenous proteins in MGC80-3 whole-cell lysate; IP with anti-G3BP1 or anti-YWHAZ antibody, protein G agarose, IgG as negative control; lysis buffer 50 mM Tris-HCl pH 7.5, 150 mM NaCl, 0.1% NP-40, 15 mM MgCl2; 4 °C.
The target in another experiment is Flag-YWHAZ (UniProt P63104). The experiment in a line: co-IP; 293T cells transfected with Flag-YWHAZ together with HA-G3BP1 constructs; immunoblot of whole-cell lysates and immunoprecipitates. On the technique in general: In western blotting, separated proteins are transferred to a membrane and probed.
Experiment [3] has as its target G3BP1 (Ras-GTPase-activating protein SH3 domain-binding protein) (human (endogenous in MGC80-3)) (UniProt Q13283). The experiment can be described thus: co-IP; endogenous proteins in MGC80-3 whole-cell lysate; IP with anti-G3BP1 or anti-YWHAZ antibody, protein G agarose, IgG as negative control; lysis buffer 50 mM Tris-HCl pH 7.5, 150 mM NaCl, 0.1% NP-40, 15 mM MgCl2; 4 °C.

Sequences of proteins named here, by UniProt entry; tags and fusion partners are left off. A change or cut given only in a name is not applied to a line headed by its entry.
UniProt P63104: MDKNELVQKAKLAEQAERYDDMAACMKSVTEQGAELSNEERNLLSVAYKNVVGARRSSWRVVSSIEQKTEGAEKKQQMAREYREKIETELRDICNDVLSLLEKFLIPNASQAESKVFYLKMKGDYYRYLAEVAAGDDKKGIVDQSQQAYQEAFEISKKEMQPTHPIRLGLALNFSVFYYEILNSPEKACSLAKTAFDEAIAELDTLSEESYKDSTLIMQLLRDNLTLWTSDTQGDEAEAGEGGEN
UniProt Q13283: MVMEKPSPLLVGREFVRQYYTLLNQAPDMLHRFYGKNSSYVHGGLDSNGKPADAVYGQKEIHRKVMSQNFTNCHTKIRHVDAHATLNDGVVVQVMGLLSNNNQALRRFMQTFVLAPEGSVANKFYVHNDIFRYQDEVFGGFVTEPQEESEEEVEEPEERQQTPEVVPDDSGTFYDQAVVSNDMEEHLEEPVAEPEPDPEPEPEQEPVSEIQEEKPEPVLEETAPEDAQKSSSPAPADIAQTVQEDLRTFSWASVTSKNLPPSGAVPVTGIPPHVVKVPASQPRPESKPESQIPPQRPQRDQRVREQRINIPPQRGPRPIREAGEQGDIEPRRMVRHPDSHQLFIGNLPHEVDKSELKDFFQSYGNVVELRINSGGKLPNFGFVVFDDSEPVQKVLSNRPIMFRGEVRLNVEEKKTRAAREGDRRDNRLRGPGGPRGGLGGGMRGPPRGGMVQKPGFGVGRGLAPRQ
UniProt Q07812: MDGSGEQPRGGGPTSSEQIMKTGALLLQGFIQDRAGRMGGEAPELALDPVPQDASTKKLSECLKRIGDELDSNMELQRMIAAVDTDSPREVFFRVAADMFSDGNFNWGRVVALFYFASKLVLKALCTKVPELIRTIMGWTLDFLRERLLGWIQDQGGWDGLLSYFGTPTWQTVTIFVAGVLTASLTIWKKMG

Results are given in words; binding and its absence hold for the method and conditions named. Binding seen in cells or lysates may run through a third protein. Some binding calls cover weakened binding; strength is not graded here.

As to Bax (from UniProt Q07812 1-192), the binding entry in experiment [1] is recorded as “binds”. Regarding “G3BP1 (Ras-GTPase-activating protein SH3 domain-binding protein) (from UniProt Q13283 1-466)”, the binding entry in experiment [2] is “binds”. “HA-tagged G3BP1 fragment, RRM and RGG domains (326-466 aa) (from UniProt Q13283 326-466) (domain or fragment)”: the binding entry with Flag-YWHAZ is reported as “binds”. As for YWHAZ (from UniProt P63104 1-245), the binding entry in experiment [3] is listed as “binds”.

For the origin of these results see paper PMC7852868.
